Source: the supplement of paper PMC6078165

Tested on: HCC1143
Assay: relative JC-1 red fluorescence (viability) vs pre-drug, coculture with fibroblast (fraction); higher = more viable cancer cells
Conditions: 100 µM
Method: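 JC-1 labelled TNBC cells cocultured 1:1 (1,500 cells each) with CellTrace Violet stained primary or stromal fibroblasts in 384-well plates in FluoroBrite medium, treated with one of 42 anticancer drugs at 0.1, 1, 10 or 100 uM. JC-1 red fluorescence (mitochondrial integrity in cancer cells only) was read by plate reader every 8 h for 72 h. Values are normalised to each well's pre-drug value. The stock of one drug was tenfold lower, so its dose labels may be too high.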

CCC1=C[C@@H]2CN(C1)Cc1c([nH]c3ccccc13)[C@@](C(=O)OC)(c1cc3c(cc1OC)N(C)[C@H]1[C@@](O)(C(=O)OC)[C@H](OC(C)=O)[C@]4(CC)C=CCN5CC[C@]31[C@@H]54)C2 [Vinorelbine]
relative JC-1 red fluorescence
Conditions	8 h	16 h	24 h	32 h	40 h	48 h	56 h	64 h	72 h
coculture fibroblast: C12385	0.638 ± 0.019	0.451 ± 0.012	0.225 ± 0.041	0.145 ± 0.058	0.0957 ± 0.053	0.0768 ± 0.049	0.0543 ± 0.047	0.0327 ± 0.043	0.0261 ± 0.029
coculture fibroblast: H6013	0.551 ± 0.039	0.322 ± 0.021	0.24 ± 0.035	0.187 ± 0.037	0.152 ± 0.037	0.139 ± 0.033	0.106 ± 0.033	0.0837 ± 0.032	0.0297 ± 0.03
coculture fibroblast: H6019	0.727 ± 0.056	0.514 ± 0.047	0.334 ± 0.082	0.214 ± 0.075	0.152 ± 0.081	0.129 ± 0.082	0.0959 ± 0.077	0.0724 ± 0.071	0.056 ± 0.068
coculture fibroblast: H6076	0.708 ± 0.099	0.679 ± 0.25	0.598 ± 0.31	0.579 ± 0.33	0.42 ± 0.3	0.395 ± 0.31	0.348 ± 0.32	0.315 ± 0.31	0.311 ± 0.32
coculture fibroblast: H6231	0.688 ± 0.014	0.571 ± 0.15	0.396 ± 0.036	0.418 ± 0.029	0.277 ± 0.03	0.249 ± 0.031	0.207 ± 0.029	0.172 ± 0.035	0.152 ± 0.03
coculture fibroblast: HADF	0.577 ± 0.1	0.405 ± 0.1	0.294 ± 0.11	0.232 ± 0.11	0.195 ± 0.11	0.184 ± 0.12	0.154 ± 0.12	0.134 ± 0.12	0.0764 ± 0.1
coculture fibroblast: HCFa	0.54 ± 0.015	0.343 ± 0.029	0.218 ± 0.0027	0.164 ± 0.0039	0.118 ± 0.0027	0.1005 ± 0.0007	0.0699 ± 0.0059	0.0481 ± 0.007	0.00612 ± 0.0072
coculture fibroblast: HCPF	0.664 ± 0.03	0.582 ± 0.1	0.431 ± 0.12	0.415 ± 0.099	0.292 ± 0.09	0.25 ± 0.088	0.205 ± 0.088	0.171 ± 0.085	0.155 ± 0.087
coculture fibroblast: HHSteC	0.618 ± 0.025	0.45 ± 0.1	0.361 ± 0.14	0.305 ± 0.16	0.265 ± 0.16	0.252 ± 0.17	0.219 ± 0.17	0.197 ± 0.18	0.135 ± 0.16
coculture fibroblast: HMF	0.66 ± 0.007	0.5924 ± 0.0013	0.467 ± 0.038	0.461 ± 0.039	0.294 ± 0.032	0.249 ± 0.024	0.195 ± 0.02	0.162 ± 0.019	0.145 ± 0.019
coculture fibroblast: HPFa	0.716 ± 0.084	0.574 ± 0.14	0.423 ± 0.1	0.334 ± 0.094	0.272 ± 0.085	0.252 ± 0.083	0.207 ± 0.071	0.186 ± 0.071	0.16 ± 0.068
coculture fibroblast: HUF	0.627 ± 0.056	0.424 ± 0.14	0.268 ± 0.16	0.164 ± 0.1	0.105 ± 0.072	0.0876 ± 0.072	0.0532 ± 0.072	0.0574 ± 0.034	0.0438 ± 0.026
coculture fibroblast: Hs5	0.648 ± 0.024	0.532 ± 0.038	0.384 ± 0.06	0.342 ± 0.11	0.22 ± 0.086	0.178 ± 0.078	0.137 ± 0.066	0.106 ± 0.06	0.0934 ± 0.063
coculture fibroblast: Hs27A	0.503 ± 0.023	0.354 ± 0.07	0.21 ± 0.068	0.157 ± 0.022	0.0762 ± 0.018	0.0777 ± 0.022	0.0492 ± 0.02	0.0332 ± 0.02	0.0237 ± 0.033
coculture fibroblast: Hs343T	0.6916 ± 0.0015	0.623 ± 0.024	0.481 ± 0.055	0.468 ± 0.085	0.306 ± 0.078	0.268 ± 0.081	0.218 ± 0.072	0.178 ± 0.078	0.151 ± 0.072
coculture fibroblast: WS1	0.637 ± 0.032	0.34 ± 0.051	0.199 ± 0.073	0.124 ± 0.065	0.0774 ± 0.057	0.0567 ± 0.054	0.0583 ± 0.019	0.0488 ± 0.0015	0.0191 ± 0.022

± gives the standard deviation of the averaged measurements. Values are relative to the signal before dosing, not to a vehicle control; the signal also falls without drug.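 Fibroblast labels denote human fibroblasts, mainly primary ones from uterus (C12385, HUF), lung (H6013), bone (Hs27A), adrenal (HADF) and skin (WS1), plus mammary HMF and breast cancer-associated Hs343T. Cancer cells are basal-like or mesenchymal-like triple-negative breast cancer lines. A hit is a response shift exceeding 3x replicate standard deviation. The tissue of the other fibroblasts is not given here.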
